Record: PubChem BioAssay AID504786 (Drosophila RNAi Screening Center, 2011)
Assay: 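Positive regulators of HIF-driven reporter output in Drosophila cells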 (primary screen). Cell system: Drosophila S2 cells with a stable HIF luciferase reporter. Knock-down reagent: long dsRNA against Drosophila genes, about 0.2 µg dsRNA per well of a 384-well plate. Duration: three days of knock-down, then 20 h of DFO before reading. Challenge: desferrioxamine (DFO) at 100 µM, an iron chelator that mimics hypoxia, for 20 h. Detection: 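HIF reporter luminescence in cells given 100 µM DFO for 20 h, using the mouse ldh-a hypoxia-response element, scored as per-plate z-scores; higher means greater loss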. Scale: z-score: higher = stronger loss of HIF reporter signal.
In all, the deposit lists about 21,000 reagents; shown is a random part of those that have a named target and a result. 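Primary screen; positive scores mean lost reporter signal, so the sign may be inverted from the usual convention.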 Names joined by + are all predicted targets of the reagent.

The first 2 records, to show the layout:
Gene | amplicon | z-score, replicate 1 | z-score, replicate 2 | z-score, replicate 3 | z-score, replicate 4
eIF1A | DRSC16937 | 3.4 | 4.7 | – | –
wisp | DRSC19703 | -0.3 | -0.6 | – | –

The list itself, from the start:
Gene | amplicon | z-score, replicate 1 | z-score, replicate 2 | z-score, replicate 3 | z-score, replicate 4
eIF1A | DRSC16937 | 3.4 | 4.7 | – | –
wisp | DRSC19703 | -0.3 | -0.6 | – | –
beta4GalT7 | DRSC14385 | -0.1 | -0.5 | – | –
CG11586 | DRSC08203 | -0.1 | -0.4 | – | –
Clk | DRSC11117 | -0.2 | 0.2 | – | –
CG13800 (retired record) | DRSC08334 | -0.1 | -0.3 | – | –
Drat | DRSC06600 | -0.3 | 0 | – | –
Dph3 | DRSC14923 | -0.3 | -0.3 | – | –
dgt2 | DRSC02548 | -0.2 | 0.2 | – | –
CG13693 | DRSC00362 | 0 | 0.1 | – | –
pasi1 | DRSC16299 | -0.6 | -1.1 | 0.1 | -0.1
ics | DRSC01878 | -0.4 | -0.3 | – | –
Nrx-1 | DRSC16184 | -0.3 | -0.8 | – | –
hoe1 | DRSC00265 | -0.3 | -0.2 | – | –
hoe1 | DRSC00333 | -0.4 | -0.1 | – | –
hoe1 | DRSC00353 | -0.5 | -0.8 | – | –
Ssu72 | DRSC19572 | 0.6 | 0.5 | – | –
Lsm11 | DRSC06238 | -0.1 | -0.2 | – | –
milt | DRSC00965 | 0.8 | 0.9 | – | –
milt | DRSC00966 | 1.1 | 1.7 | – | –
milt | DRSC02281 | -0.3 | -0.7 | – | –
rasp | DRSC08191 | -0.4 | -0.3 | – | –
CG18081 | DRSC10294 | -0.1 | -0.2 | – | –
Agpat2 | DRSC03532 | -0.1 | 0.5 | – | –
Epg5 | DRSC14778 | -0.4 | 0 | – | –
RpL3 | DRSC16834 | 7 | 5.4 | – | –
CG11929 | DRSC00339 | -0.2 | -0.1 | – | –
Wwox | DRSC03030 | -0.4 | -0.5 | – | –
Gpxl | DRSC06538 | -0.2 | -0.1 | – | –
Pdzd8 | DRSC19355 | 0.2 | -0.1 | – | –
Amun | DRSC19847 | 3 | 1.5 | – | –
dmpd | DRSC06092 | -0.4 | -0.5 | – | –
AANATL4 | DRSC06774 | -0.3 | -0.1 | – | –
CG32576 | DRSC19136 | -0.8 | -0.7 | – | –
CG18537 | DRSC06764 | -0.3 | -0.7 | – | –
CARPA | DRSC17905 | -0.2 | -0.1 | – | –
CG8675 | DRSC20117 | -0.2 | -0.3 | – | –
CG17754 | DRSC18131 | -0.4 | -0.1 | – | –
UGP + PGRP-LF | DRSC10418 | -0.2 | -0.4 | – | –
p23 | DRSC15158 | -0.4 | -0.3 | – | –
CG18302 | DRSC02663 | -0.1 | 0.5 | – | –
CG30377 | DRSC06477 | -0.5 | -0.6 | – | –
CG30377 | DRSC06799 | 0.2 | 0.3 | – | –
CkIalpha | DRSC20231 | 0.1 | 1 | – | –
CG14340 | DRSC00370 | -0.3 | -0.7 | – | –
CG32719 | DRSC17525 | -0.1 | -0.1 | – | –
CG15741 | DRSC19707 | -0.3 | 0.3 | – | –
mRpS16 | DRSC07152 | 0.5 | -0.1 | – | –
pths | DRSC03171 | 2.5 | 4.2 | – | –
CG13675 | DRSC08908 | -0.2 | 0.8 | – | –
CG13675 | DRSC10034 | 3.9 | 4.1 | – | –
Mco4 | DRSC20061 | -0.3 | -0.2 | – | –
Mvl | DRSC16752 | -0.2 | -0.6 | – | –
kdn | DRSC18328 | -0.1 | -0.4 | – | –
spel1 | DRSC03617 | -0.1 | -0.5 | – | –
MsR1 | DRSC08615 | 0.1 | 0.6 | – | –
